Measured values as given in the supplement of paper PMC10338343.
± gives the standard deviation. The list shows a part of the results, in another mix than the full data. The uncertainty is large for many entries.

Each sequence was assayed on MILI (PIWIL2) piRISC loaded with L1MC piRNA (26 nt) (assay: pre-steady-state target cleavage rate (min^-1); MIWI and MILI are mouse PIWI proteins and EfPiwi is from a freshwater sponge; tags in brackets are library labels; higher = faster piRNA-guided slicing of the target). Conditions: guide: L1MC piRNA 5'p-UAACUAAAUACUAUGCAAGCUGUAGG; auxiliary factor: 500 nM mouse GTSF1.
In short: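 Sequencing of uncleaved targets, normalised to depth and to weakly complementary targets, was the readout of this Cleave-'n-Seq assay. A transcribed, DNA-blocked target RNA library (0.1 nM) was mixed with 1 nM active affinity-purified piRISC carrying one synthetic guide, with or without 500 nM GTSF1 partner protein, in HEPES–potassium acetate buffer at 33 °C for 0–8 or 0–960 min. Three trials were pooled, k3 was capped at 0.0001 min^-1, and a burst-and-steady-state fit gave the pre-steady-state cleavage rate.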
With UCCUGCUACAGCUUGCAUAGUAUUUCAGUUA the “pre-steady-state target cleavage rate” value was 0.335 ± 0.075. With UCCUGGAUGUCGAACCAUAGUAUUCAGUUA the “pre-steady-state target cleavage rate” value was < 0.0001. In the case of UCCUGGAACAGGUUGCAUAGUAUUUAGUUA, the “pre-steady-state target cleavage rate” value is reported as 0.308 ± 0.018. With UCCUGGAUGUCGAACGUUAGUAUUUAUUA the “pre-steady-state target cleavage rate” value was 0.000101 ± 0.059. For UCCUGGAUGUCCUUGGCAUAGUAUUUAGUUA, the “pre-steady-state target cleavage rate” value was 0.566 ± 0.19. UCCUGCUACAGCUUGCAUAGUAUUUAAGUUA was tested, and the “pre-steady-state target cleavage rate” value was 0.365 ± 0.043.

Same assay, conditions: guide: L1MC piRNA 5'p-UAACUAAAUACUAUGCAAGCUGUAGG; auxiliary factor: none (no GTSF1)
For UCCUGGAUGUCGAACGUUUGUAUUUAGAUA, the “pre-steady-state target cleavage rate” value was 0.000111 ± 0.036. UCCUGGAUGUCGUUGGAUAGUAAUUAGUUA was tested, and the “pre-steady-state target cleavage rate” value was 0.000523 ± 0.011. UCCUGGUACAGCUUGCAUAGUAUAUACUUA was tested, and the “pre-steady-state target cleavage rate” value was 0.00128 ± 0.0064. UCCUGGAUGUGCUUGCAUAGUAUUUAGUCUA was tested, and the “pre-steady-state target cleavage rate” value was 0.000474 ± 0.019. UCCUGGAACAGCUUGCAUAGUAUUCUAGUUA was tested, and the “pre-steady-state target cleavage rate” value was 0.00265 ± 0.004. In the case of “UCCUGGAUGUCGAACGUAUGUAUUUUCAAA [g6:g11:cont:t1A]”, the “pre-steady-state target cleavage rate” value is reported as < 0.0001. In the case of UCCUGGAUGUCGUUCCAUAGAAUUUAGUUA, the “pre-steady-state target cleavage rate” value is reported as 0.000443 ± 0.012. UCCUGGAUGUCGAACGUUAGUAGUUUAGUUA was tested, and the “pre-steady-state target cleavage rate” value was 0.000181 ± 0.026. For UCCUGCUACAGCUUGCAUAGUAAUUAGAUA, the “pre-steady-state target cleavage rate” value was 0.00103 ± 0.0052. With UCCUGGAUGUGCUUGCAUAAUAUUUAGUUA the “pre-steady-state target cleavage rate” value was 0.00283 ± 0.0038. For UCCUGCUACAGCUUGCAUAGUAAAUAGUUA, the “pre-steady-state target cleavage rate” value was 0.00264 ± 0.0029. With UCCUGGAUGUCGUUGGAUAGUUUUUAGUUA the “pre-steady-state target cleavage rate” value was 0.000284 ± 0.021. UCCUGGAUGUCGUUGGAAAGUAUUUAGUUA was tested, and the “pre-steady-state target cleavage rate” value was 0.000187 ± 0.028. With UCCUGGAUGUCGAACGUAAGUGUUUAGUUA the “pre-steady-state target cleavage rate” value was 0.000184 ± 0.021. With UCCUGGAUCAGCUUGCAUAGUAUUUAGCUUA the “pre-steady-state target cleavage rate” value was 0.00282 ± 0.0034. UCCUCCUACUGCUUGCAUAGUAUUUACAAA was tested, and the “pre-steady-state target cleavage rate” value was 0.000945 ± 0.0053. UCCUCCUACAGCUUGCAUAGAAUUAAGUUA was tested, and the “pre-steady-state target cleavage rate” value was 0.00126 ± 0.0046. UCCUGGAUGUCGAACGUAUCUAUUUGUUA was tested, and the “pre-steady-state target cleavage rate” value was 0.000138 ± 0.022. UCCUGGAUGUCGAACGUAAGUAUUAUGUUA was tested, and the “pre-steady-state target cleavage rate” value was 0.000181 ± 0.03. With UCCUGGAUCAGCUUGCAUAGUUUUUAGAUA the “pre-steady-state target cleavage rate” value was 0.00137 ± 0.0049. For UCCUGGAUGUCGAUGCAUAGUAUAUACUUA, the “pre-steady-state target cleavage rate” value was 0.000264 ± 0.017. In the case of UCCUGGAUGUCGAUCCAUUGUAUUUAGUUA, the “pre-steady-state target cleavage rate” value is reported as < 0.0001. With UCCUGGAUGUCGAUGCAUAGAUAUUAGUUA the “pre-steady-state target cleavage rate” value was 0.00025 ± 0.017. For UCCUCCUACAGGUUGCAUAGUAUUUAGAAA, the “pre-steady-state target cleavage rate” value was 0.00153 ± 0.0036. In the case of UCCUGGAUGUCGAACCUUAGUAAUUAGUUA, the “pre-steady-state target cleavage rate” value is reported as 0.000314 ± 0.01. UCCUGGAUGUCGAACGUAAGUAUUAAGUUA was tested, and the “pre-steady-state target cleavage rate” value was 0.000292 ± 0.016. In the case of UCCUGGAUGUCCUUGGAUUGUAUUUAGUUA, the “pre-steady-state target cleavage rate” value is reported as 0.000735 ± 0.0066. With UCCUGGAUGUCGAACGUAUGUAUAAAGUUA the “pre-steady-state target cleavage rate” value was < 0.0001. With UCCUGGAACAGCUUGCAUAGUUUUUAGUAA the “pre-steady-state target cleavage rate” value was 0.00209 ± 0.0034. With UCCUGGAUGUCGAACGUAUCUAUUUACGUUA the “pre-steady-state target cleavage rate” value was 0.00033 ± 0.015. In the case of UCCUGGAUGUCGAACGUAUGUAGUUUAGUUA, the “pre-steady-state target cleavage rate” value is reported as 0.000164 ± 0.04. In the case of UCCUGGAUGUCGAACCAUUGUAUUUUGUUA, the “pre-steady-state target cleavage rate” value is reported as 0.000483 ± 0.0093. For UCCUGGAUGUCGAACGUUAGUAAUUUAGUUA, the “pre-steady-state target cleavage rate” value was 0.000158 ± 0.023. For UCCUGGAUGUCGAACCAUAGUAUUUGAGUUA, the “pre-steady-state target cleavage rate” value was 0.000151 ± 0.023.
